Each structure is given as a SMILES string. The list shows only some results of the screen, not a fair sample: it is rich in T/C values a quarter to a half above the control, in often repeated tests (any T/C) and in doses without a T/C. Further doses and runs are listed elsewhere. T/C gives the treated animals as a percentage of the vehicle group. Some doses have a count of surviving animals in place of a T/C: the source holds a T/C of zero for them, seemingly a mark for toxic or unscored doses. Some survivor counts are full or nearly so, which does not show that the dose was tolerated: survival well below the control is almost never listed, so the zero probably covers shortened survival too. Counts of survivors are from the toxicity check (mostly the fifth day) where no day follows; animals may have died later. Schedules are NCI's codes, taken here to give the interval after Q, in days (D) or hours (H), and the number of doses after X. Some entries hold several experiments; their values stand side by side, smallest first. Where survival is the endpoint, the PubChem record calls one and a half times the control and up active, and a quarter to a half above the control has no call in these data; cut-offs in other NCI protocols can differ. Some T/C values carry the count of animals alive at the toxicity check (mostly the fifth day); where none is given, no animal had died by that day.

This test concerns P388 leukemia ip, CD2F1 mice, survival T/C. The test is described as follows: NCI In Vivo Anticancer Drug Screen. Data for tumor model P388 Leukemia (intraperitoneal) in CD2F1 (CDF1) mice. Conditions: T/C endpoint: median survival time, higher T/C = longer survival.
Where [1] appears, read: dose: 60.0 mg/kg/injection, schedule: Q01DX005 (ip), vehicle: saline with Tween-80.
Where [2] appears, read: dose: 120.0 mg/kg/injection, schedule: Q01DX005 (ip), vehicle: saline with Tween-80.
[3] abbreviates: dose: 240.0 mg/kg/injection, schedule: Q01DX005 (ip), vehicle: saline with Tween-80.
Setting [4] is: dose: 100.0 mg/kg/injection, schedule: Q01DX005 (ip), vehicle: saline with Tween-80.
Where [5] appears, read: dose: 50.0 mg/kg/injection, schedule: Q01DX009 (ip), vehicle: saline.
The mark [6] stands for this setting: dose: 100.0 mg/kg/injection, schedule: Q01DX009 (ip), vehicle: saline.
Where [7] appears, read: dose: 1.56 mg/kg/injection, schedule: Q01DX009 (ip), vehicle: saline.

Regarding `COc1cccc(/C=N\NC(=O)CNC(=O)Nc2ccc(Cl)c(Cl)c2)c1OC`, the survivor count runs as follows: under setting [1], 6 of 6; under setting [2], 6 of 6.
For `COC(=O)C(Cc1cnc2nc(N)nc(N)c2n1)C(=O)OC`, under “dose: 200.0 mg/kg/injection, schedule: Q01DX009 (ip), vehicle: distilled water + Tween-80”, the survivor count is on record as 0 of 5.
Consider `CCCCCCCCCCCCCCCCCCSc1c(OC)c(OC(C)=O)c(OC)c(OC)c1OC(C)=O`, for which, for the setting “dose: 2.0 mg/kg/injection, schedule: Q01DX009 (ip), vehicle: Klucel (hydroxypropylcellulose) (HPC)”, the survivor count is given as 6 of 6.
Regarding `Nc1ccccc1SC(C[N+](=O)[O-])c1ccc2c(c1)OCO2` (stereo not drawn), the survivor count under setting [3] was 4 of 6.
As for `[Mn]=[Se]`, the survivor count by setting is: (dose: 120.0 mg/kg/injection, schedule: Q01DX005 (ip), vehicle: acid diluted with saline) 4 of 6; (dose: 240.0 mg/kg/injection, schedule: Q01DX005 (ip), vehicle: acid diluted with saline) 0 of 6.
Regarding `Cc1ccc(C2N3CCCN2CC3)cc1` (stereo not drawn), under “dose: 400.0 mg/kg/injection, schedule: Q01DX009 (ip), vehicle: saline with Tween-80”, the survivor count is 0 of 6.
Take `CCOc1c(N=Nc2cccc([N+](=O)[O-])c2)c(C)nn1C(=S)SC`: the survivor count (dose: 240.0 mg/kg/injection, schedule: Q01DX005 (ip), vehicle: Klucel (hydroxypropylcellulose) (HPC)) was 3 of 6.
As for `[Cl][Pt+2][Cl].[NH-]c1nc2ccc(Br)cc2s1.[NH-]c1nc2ccc(Br)cc2s1`, the survivor count (dose: 400.0 mg/kg/injection, schedule: Q04DX002 (ip), vehicle: saline with Tween-80) is listed as 5 of 6.
Turning to `COc1cc2[nH]c3cc(OC)c(OC)cc3c2cc1C`, the survivor count reads like this: under setting [2], 6 of 6; under setting [3], 6 of 6.
Consider `CC1(C)C2CCC1(C)C(N1C(=O)N=NC1=O)C2` (stereo not drawn), for which the survivor count under setting [4] is reported as 3 of 5.
As to `CN(CCC#N)c1ccc(/C=C(\C#N)C(N)=O)cc1`, the survivor count (dose: 80.0 mg/kg/injection, schedule: Q01DX009 (ip), vehicle: saline with Tween-80) is 6 of 6.
For `COc1cccc2c1C(=O)c1c(O)c3c(c(O)c1C2=O)C[C@@](O)(C(=O)COc1ccccc1)C[C@@H]3OC1CC(N)C(O)C(C)O1` (stereo partly drawn), the survivor count (dose: 25.0 mg/kg/injection, schedule: Q01DX009 (ip), vehicle: water) was 2 of 3 and 6 of 6.
Take `O=c1c2ccccc2nc(-c2ccccc2)n1-c1nnc(C(F)(F)F)s1`: the survivor count is, setting by setting: (dose: 50.0 mg/kg/injection, schedule: Q01DX009 (ip), vehicle: saline with Tween-80) 1 of 6; (dose: 100.0 mg/kg/injection, schedule: Q01DX009 (ip), vehicle: saline with Tween-80) 0 of 6; (dose: 200.0 mg/kg/injection, schedule: Q01DX009 (ip), vehicle: saline with Tween-80) 0 of 6.
`CCCCCCC(Cn1ccnc1)c1ccccc1Cl` (stereo not drawn): the survivor count is reported as 5 of 6 (dose: 100.0 mg/kg/injection, schedule: Q04DX003 (ip), vehicle: saline with Tween-80); 0 of 6 (dose: 200.0 mg/kg/injection, schedule: Q04DX003 (ip), vehicle: saline with Tween-80); 0 of 6 (dose: 400.0 mg/kg/injection, schedule: Q04DX003 (ip), vehicle: saline with Tween-80).
Turning to `CC(=O)OC1CCC2(C)C(=CCC3C2CCC2(C)C3CC3ON=C(C)C32)C1` (stereo not drawn), where the note is “dose: 50.0 mg/kg/injection, schedule: Q01DX005 (ip), vehicle: Klucel (hydroxypropylcellulose) (HPC)”, the survivor count is given as 6 of 6.
Turning to `Cc1ccc(S(=O)(=O)Sc2nnnn2C)cc1`, for the setting “dose: 200.0 mg/kg/injection, schedule: Q01DX009 (ip), vehicle: Klucel (hydroxypropylcellulose) (HPC)”, the survivor count is on record as 0 of 6.
Turning to `Cc1cc(C)c2c(c1N)C(=O)CCO2`, the survivor count is, setting by setting: under setting [1], 4 of 6; under setting [2], 2 of 6; under setting [3], 0 of 6.
On to `C[N+]1(CCC(=O)c2ccccc2)CCCCC1`, for which the survivor count was 3 of 6 under setting [5] and 0 of 6 under setting [6].
In the case of `C[Si]1(C)O[Si](C)(C)N(N)P(=S)(Oc2ccccc2)N1N`, the survivor count under setting [4] is 0 of 5 and the survivor count (dose: 200.0 mg/kg/injection, schedule: Q01DX005 (ip), vehicle: saline with Tween-80) is reported as 0 of 5.
In the case of `Cc1ccc(C(=O)NC2C(=O)NC(C(C)C)C(=O)N3CCCC3C(=O)N(C)CC(=O)N(C)C(C(C)C)C(=O)OC2C)c2c1Oc1c(c(C(=O)NC3C(=O)NC(C(C)C)C(=O)N4CCCC4C(=O)N(C)CC(=O)N(C)C(C(C)C)C(=O)OC3C)c3nc(-c4ccccc4)c(=O)oc3c1C)N2` (stereo not drawn), the T/C (dose: 0.13 mg/kg/injection, schedule: Q01DX005 (ip), vehicle: water) is 125 % of control; the T/C (dose: 0.25 mg/kg/injection, schedule: Q01DX005 (ip), vehicle: water) is 145 % of control; the T/C (dose: 0.5 mg/kg/injection, schedule: Q01DX005 (ip), vehicle: water) is 126 % of control. In addition, the survivor count is 3 of 6 and 5 of 6 (dose: 1.0 mg/kg/injection, schedule: Q01DX005 (ip), vehicle: water); 0 of 6 (dose: 2.0 mg/kg/injection, schedule: Q01DX005 (ip), vehicle: water); 0 of 6 (dose: 4.0 mg/kg/injection, schedule: Q01DX005 (ip), vehicle: water).
Turning to `O=C(CCSCCCl)Nc1c([N+](=O)[O-])cc([N+](=O)[O-])cc1S(=O)(=O)O`, the T/C was 127 % of control (dose: 12.5 mg/kg/injection, schedule: Q04DX003 (ip), vehicle: olive oil, sesame oil, peanut oil); 129 % of control (dose: 50.0 mg/kg/injection, schedule: Q04DX003 (ip), vehicle: DMSO); 127 % of control (dose: 50.0 mg/kg/injection, schedule: Q04DX003 (ip), vehicle: olive oil, sesame oil, peanut oil); 125 % of control (dose: 100.0 mg/kg/injection, schedule: Q04DX003 (ip), vehicle: olive oil, sesame oil, peanut oil); 125 % of control (dose: 150.0 mg/kg/injection, schedule: Q04DX003 (ip), vehicle: DMSO); 126 % of control [5 of 6 alive] (dose: 200.0 mg/kg/injection, schedule: Q04DX003 (ip), vehicle: olive oil, sesame oil, peanut oil). Moreover, where the note is “dose: 400.0 mg/kg/injection, schedule: Q04DX003 (ip), vehicle: olive oil, sesame oil, peanut oil”, the survivor count is listed as 1 of 6.
Turning to `CC(O)C(O)C=O` (stereo not drawn), the T/C by setting is: (dose: 346.0 mg/kg/injection, schedule: Q01DX010 (ip), vehicle: saline) 140 % of control; (dose: 576.0 mg/kg/injection, schedule: Q01DX010 (ip), vehicle: saline) 140 % of control.
Take `CCCCCCCCCCCCCC[N+]1(CC)CCCCC1`: the T/C is 125 % of control [5 of 6 alive] (dose: 0.78 mg/kg/injection, schedule: Q01DX009 (ip), vehicle: saline) and 136 % of control under setting [7]. Also, the survivor count under setting [7] is reported as 3 of 6; the survivor count (dose: 3.12 mg/kg/injection, schedule: Q01DX009 (ip), vehicle: saline) is reported as 5 of 6; the survivor count (dose: 3.12 mg/kg/injection, schedule: Q04DX003 (ip), vehicle: saline) is on record as 1 of 6; the survivor count (dose: 6.25 mg/kg/injection, schedule: Q01DX009 (ip), vehicle: saline) is 4 of 6; the survivor count (dose: 6.25 mg/kg/injection, schedule: Q04DX003 (ip), vehicle: saline) was 2 of 6; the survivor count (dose: 12.5 mg/kg/injection, schedule: Q01DX009 (ip), vehicle: saline) is 1 of 6. Further, the survivor count is, setting by setting: (dose: 12.5 mg/kg/injection, schedule: Q04DX003 (ip), vehicle: saline) 0 of 6; under setting [5], 0 of 6; under setting [6], 0 of 6; (dose: 200.0 mg/kg/injection, schedule: Q01DX009 (ip), vehicle: saline) 0 of 6.
For `COc1ccc(OC)c2c(Cl)cc(N(C)C)nc12`, the survivor count under setting [3] is reported as 4 of 6.

Source of the values: PubChem BioAssay AID330 (DTP/NCI, 2004).
